In article doi:10.1101/2025.03.30.646141:
These are yes or no findings as the source states them, for the method shown.

Biological target: aminoglycoside 3'-O-phosphotransferase IIb, APH(3')-IIb, wild type (Pseudomonas aeruginosa) (UniProt Q9HWR2)
Assay: SAXS

B1: aminoglycoside 3'-O-phosphotransferase IIb, APH(3')-IIb, wild type (enzyme, UniProt Q9HWR2 1-268)
chain: MHDAATSMPPQAPSTWADYLAGYRWRGQGEGCSAATVHRLEAARRPTLFVKQEVLSAHAELPAEIARLRWLHGAGIDCPQVLNETQSDGRQWLLMSAVPGDTLSALAQRGELEPERLVRLVAAALRRLHDLDPAACPFDHRLERRLDTVRQRVEAGLVDEADFDDDHRGRSATELYRLLLDRRPAVEDLVVAHGDACLPNLLAEGRRFSGFIDCGRLGVADRHQDLALAARDIEAELGAAWAEAFLVEYGGDIDGERLAYFRLLDEFF
- binding: no binding (tested: up to 10 mg/mL)
